Reference: article PMC11864945 (Frontiers in Pharmacology, 2025)

Tests used:
[1] = Stability of the analytes in beagle dog plasma (bench top, refrigerator, freeze–thaw, autosampler, short and long term storage); type: physicochemical; conditions: for Mean stability sample ±SD: n = 5
[2] = beagle, dog, in vivo
[3] = autosampler, 6°C, 55 h, processed plasma samples, HQC
[4] = autosampler, 6°C, 55 h, processed plasma samples, LQC
[5] = freeze–thaw after 3rd cycle at −80°C, dog plasma, HQC
[6] = freeze–thaw after 3rd cycle at −80°C, dog plasma, LQC
[7] = long term, −80°C, 120 days, dog plasma, HQC
[8] = long term, −80°C, 120 days, dog plasma, LQC
[9] = refrigerator, 4°C, 30 h, dog plasma, HQC
[10] = short term, −20°C, 48 h, dog plasma, HQC
[11] = short term, −20°C, 48 h, dog plasma, LQC

COCC(=O)Nc1cc(Sc2ccccc2)ccc1N/C(=N\C(=O)OC)NC(=O)OC [Febantel, febantel]
Accuracy [1, 3]: 106.65% | Mean stability sample ±SD [1, 3]: 95.98 ± 3.18 ng/mL | Accuracy [1, 4]: 107.01% | Mean stability sample ±SD [1, 4]: 6.42 ± 0.40 ng/mL | Mean stability sample ±SD ([1]; bench top, room temperature, 8 h, dog plasma, HQC (added 180 ng/mL PYR/OXF, 675 PRA, 90 FBT, 450 FEN)): 88.24 ± 1.25 ng/mL | Accuracy ([1]; bench top, room temperature, 8 h, dog plasma, HQC, % of nominal concentration): 98.05% | Mean stability sample ±SD ([1]; bench top, room temperature, 8 h, dog plasma, LQC (added 12 ng/mL PYR/OXF, 45 PRA, 6 FBT, 30 FEN)): 6.10 ± 0.38 ng/mL | Accuracy ([1]; bench top, room temperature, 8 h, dog plasma, LQC, % of nominal concentration): 101.59% | Accuracy [1, 5]: 98.12% | Mean stability sample ±SD [1, 5]: 88.31 ± 1.14 ng/mL | Accuracy [1, 6]: 102.52% | Mean stability sample ±SD [1, 6]: 6.15 ± 0.48 ng/mL | Accuracy [1, 7]: 99.52% | Mean stability sample ±SD [1, 7]: 89.57 ± 3.12 ng/mL | Accuracy [1, 8]: 97.70% | Mean stability sample ±SD [1, 8]: 5.86 ± 0.22 ng/mL | Accuracy [1, 9]: 97.41% | Mean stability sample ±SD [1, 9]: 87.67 ± 3.15 ng/mL | Mean stability sample ±SD ([1]; refrigerator, 4°C, 30 h, dog plasma, LQC): 5.78 ± 0.56 ng/mL | Accuracy [1, 10]: 100.85% | Mean stability sample ±SD [1, 10]: 90.76 ± 4.24 ng/mL | Accuracy [1, 11]: 96.29% | Mean stability sample ±SD [1, 11]: 5.75 ± 0.51 ng/mL | GMR (Test/Reference) of Cmax [2]: 98.40%
